PubChem BioAssay AID602196 – INSERM, 2012

Test: 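Modifiers of cisplatin sensitivity in A549 cells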
System: human A549 lung cancer cells
Reagents: siRNA pair against human genes
Duration: 48 h transfection before cisplatin; time from cisplatin to read-out not stated
Treatment: cisplatin at a dose killing half of control-siRNA cells; exact dose and duration not given
Measurement: 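Cisplatin cell death as a shift from the 50% death seen with control siRNA; siRNAs toxic or growth-blocking alone scored 0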
Scale: two-siRNA summed score (-2 to +2): higher = both siRNAs protect from cisplatin killing; -2 means both sensitise; mean protection from cisplatin (shift in death) and protection from cisplatin (shift in death), siRNA C and protection from cisplatin (shift in death), siRNA D: higher = protection from cisplatin killing
Call rule: 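siRNAs harmful alone (LDH or WST-1) get 0; others get +1 for less and -1 for more cisplatin killing; genes are active when the two siRNAs give the same sign, summing to ±2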
Meaning of the calls: active = both siRNAs shift cisplatin killing the same way; inactive = no consistent shift, or siRNA harmful alone
Shown is a random part of about 23,000 reagents tested. 455 of all reagents (2%) count as active. 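Active includes both protection and sensitisation; some change values fall well beyond the stated -50 to +50 range.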 Not stated in the record: the amount of reagent.

| two-siRNA summed score (-2 to +2) | mean protection from cisplatin (shift in death) (%) | protection from cisplatin (shift in death), siRNA C (%) | protection from cisplatin (shift in death), siRNA D (%) | activity call | target |
| --- | --- | --- | --- | --- | --- |
| 1 | 21.6 | 4.9 | 38.2 | inactive | LOC388931 |
| 0 | -12.8 | -13.8 | -11.8 | inactive | HCRT |
| 0 | -4 | -12.9 | 4.8 | inactive | IMPG2 |
| 0 | -2.9 | -5.5 | -0.2 | inactive | UGT3A2 |
| 0 | -4.3 | -0.9 | -7.7 | inactive | LOC390377 |
| -1 | 2.4 | -11.9 | 16.7 | inactive | GART |
| 0 | 7.7 | 8.1 | 7.3 | inactive | SRI |
| 0 | 0.7 | -5.4 | 6.9 | inactive | NFKBID |
| 0 | 3.8 | 5.4 | 2.1 | inactive | TNKS2 |
| 0 | -7.2 | -8.6 | -5.9 | inactive | CCNC |
| 0 | 4.6 | 10 | -0.9 | inactive | UNC119 |
| 1 | 9.7 | 17.9 | 1.4 | inactive | DAW1 |
| 0 | -3.9 | -7.6 | -0.1 | inactive | LOC286441 |
| -1 | -14.2 | -4.5 | -23.9 | inactive | MMP7 |
| 0 | 11.1 | 16.7 | 5.5 | inactive | FER1L6-AS2 |
| 0 | 20.1 | 4.7 | 35.4 | inactive | ANAPC1 |
| 0 | 7.8 | 24.4 | -8.9 | inactive | CD99 |
| 1 | 3.4 | -2 | 8.8 | inactive | LOC219414 |
| 0 | 7.3 | 7.5 | 7 | inactive | SLC4A1AP |
| 0 | 20.9 | 22.2 | 19.5 | inactive | POLR2M |
| 0 | 5.5 | -18.2 | 29.2 | inactive | NELFB |
| 0 | -0.3 | 8.8 | -9.4 | inactive | CCER1 |
| 1 | 25.4 | 26.8 | 24 | inactive | KLHDC9 |
| 0 | -4.6 | -9.5 | 0.4 | inactive | CNBD2 |
| 0 | 3.9 | -4.9 | 12.6 | inactive | LOC440111 |
| 0 | 13.4 | 14.6 | 12.2 | inactive | XPOT |
| 0 | -3.5 | 5.2 | -12.2 | inactive | KIAA1958 |
| 0 | -6.6 | -9.2 | -3.9 | inactive | IL7 |
| 0 | 0.8 | 0.9 | 0.7 | inactive | NPB |
| 0 | 3.9 | 3.7 | 4.1 | inactive | GOLGA7B |
| -1 | -6.6 | -6.8 | -6.4 | inactive | PPP1R2 |
| 0 | -0.8 | -2.4 | 0.9 | inactive | PMPCA |
| 0 | 9.9 | 6.4 | 13.4 | inactive | SLC29A4P1 |
| 2 | 17.9 | 26.7 | 9 | active | ALK |
| 0 | 1.5 | 10.8 | -7.8 | inactive | TARS3 |
| 0 | 12.7 | 17.3 | 8.2 | inactive | OR8K5 |
| 0 | 10.3 | 0.1 | 20.5 | inactive | MGAT5B |
| 0 | 5.8 | 11.8 | -0.2 | inactive | ZFTRAF1 |
| 0 | 1.2 | -5.4 | 7.7 | inactive | MESD |
| 0 | 7.4 | 16.1 | -1.3 | inactive | XRCC6P2 |
| -1 | -17.6 | -5.4 | -29.9 | inactive | XPNPEP3 |
| 1 | 10.1 | 21.8 | -1.7 | inactive | DMD |
| 0 | 8.6 | 5.7 | 11.6 | inactive | JSRP1 |
| 0 | 1.9 | -5.6 | 9.4 | inactive | LOC401506 |
| 0 | 0 | 8.2 | -8.1 | inactive | ZNF589 |
| 1 | 8.3 | -0.5 | 17.2 | inactive | STARD7 |
| 0 | 12.2 | 18.4 | 5.9 | inactive | TAF1C |
| 1 | 10.5 | 7.4 | 13.5 | inactive | OR6C3 |
| 0 | -5.5 | -21 | 10.1 | inactive | PAX9 |
| 0 | 6.7 | 11.7 | 1.8 | inactive | DIPK1B |
| 1 | 3.5 | 16.6 | -9.5 | inactive | RABL3 |
| 0 | 7.8 | 9 | 6.5 | inactive | MPPED2 |
| 0 | 0.3 | 2 | -1.5 | inactive | IFT88 |
| 0 | 8 | 14.9 | 1.2 | inactive | TSR1 |
| 0 | -1.1 | -8.8 | 6.6 | inactive | POPDC3 |
| 1 | 12.8 | 13.3 | 12.3 | inactive | LOC441615 |
| 2 | 15.7 | 10.5 | 20.9 | active | ETV1 |
